Assay results published in US7335500B2, “Production of fucosylated carbohydrates by enzymatic fucosylation synthesis of sugar nucleotides; and in situ regeneration of GDP-fucose” (The Scripps Research Institute, priority 1991, dated 2008).

Amino acid sequences for entries named in this document (tags omitted). Residues count along the entry.
UniProt Q2KIM0, 23-468 limits assumed: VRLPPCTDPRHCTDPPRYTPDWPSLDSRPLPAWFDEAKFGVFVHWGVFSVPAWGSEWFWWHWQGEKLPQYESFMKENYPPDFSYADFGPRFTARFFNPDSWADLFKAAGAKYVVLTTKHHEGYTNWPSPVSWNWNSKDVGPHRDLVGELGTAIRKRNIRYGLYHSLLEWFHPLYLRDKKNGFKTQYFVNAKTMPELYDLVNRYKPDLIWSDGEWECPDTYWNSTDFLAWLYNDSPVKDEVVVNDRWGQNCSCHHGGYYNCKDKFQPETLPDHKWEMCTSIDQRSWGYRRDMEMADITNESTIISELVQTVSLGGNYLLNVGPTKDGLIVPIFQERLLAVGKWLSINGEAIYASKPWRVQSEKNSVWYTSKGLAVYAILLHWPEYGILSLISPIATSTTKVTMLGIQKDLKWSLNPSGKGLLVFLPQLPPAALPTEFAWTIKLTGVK

Target: α-fucosidase (Bos taurus, UniProt Q2KIM0)
Experiment: Inhibition of α-fucosidase by aza sugars
Format: biochemical

C[C@@H]1N[C@H](CO)[C@@H](O)[C@@H]1O
Ki: 8 µM

The match of structure and compound is tentative.
